Values from PubChem BioAssay AID1259405 (NCATS, 2018)
Shown is an unselected part of about 50,000 reagents. About 4,000 of them (8%) were called active. 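Mouse siRNA library applied to hamster cells; one well for each siRNA.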 Reagents against one gene are numbered here. Further read-outs or replicates are left out here.

- Aim: 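Mouse-designed siRNAs used to find CHO productivity engineering targets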 (primary screen)
- System: Chinese hamster CHO-K1 ovary cells with stable secreted eGFP expression
- Knock-down reagent: single siRNA against mouse genes, 0.8 pmol siRNA per well (2 µl of 400 nM stock)
- Duration: 3 days
- Detection: 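Percent of the per-plate non-targeting control median for intracellular GFP per well by laser scanning cytometry and for cell viability by ATP luminescence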
- Scale: GFP, % of control: higher = more GFP per well, higher productivity
- Rule for the call: 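a knock-down is called active if GFP reaches 120% or more of non-targeting control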

GFP, % of control, by gene and reagent
Bpnt2 (3'(2'), 5'-bisphosphate nucleotidase 2): #1 89 inactive; #2 78.5 inactive; #3 67.9 inactive
Dpep1 (dipeptidase 1): #1 61.9 inactive; #2 77 inactive; #3 29.1 inactive
Rpl23 (ribosomal protein L23): #1 82.2 inactive; #2 82.1 inactive; #3 62.4 inactive
Prim1 (DNA primase, p49 subunit): #1 68.8 inactive; #2 57.6 inactive
Hoxc5 (homeobox C5): #1 79.1 inactive; #2 78.7 inactive; #3 91.5 inactive
Erlec1 (endoplasmic reticulum lectin 1): #1 124 active; #2 61.1 inactive; #3 105 inactive
Yipf5 (Yip1 domain family, member 5): #1 65 inactive; #2 23 inactive; #3 95.1 inactive
Sprr2e (small proline-rich protein 2E): #1 56.9 inactive; #2 118 inactive; #3 133 active
Rassf5 (Ras association (RalGDS/AF-6) domain family member 5): #1 29 inactive; #2 79.4 inactive; #3 49.7 inactive
Sgpl1 (sphingosine phosphate lyase 1): #1 64.2 inactive; #2 62.3 inactive; #3 93.1 inactive
Gzmf (granzyme F): #1 111 inactive; #2 74 inactive; #3 74.5 inactive
Phkg1 (phosphorylase kinase gamma 1): #1 103 inactive

Sorted by “GFP, % of control” (low to high): some entries from above.
Gene	reagent no.	GFP, % of control	activity call
Prim1 (DNA primase, p49 subunit)	2	57.6	inactive
Hoxc5 (homeobox C5)	2	78.7	inactive
Hoxc5 (homeobox C5)	1	79.1	inactive

More entries:
GFP, % of control, by gene and reagent
Wnt3a (WNT family member 3A): #1 77 inactive; #2 61.8 inactive; #3 43.6 inactive
Tmod3 (tropomodulin 3): #1 63.9 inactive; #2 72.3 inactive; #3 41.6 inactive
Thoc7 (THO complex 7): #1 87.5 inactive; #2 165 active; #3 126 active
Or8k23 (olfactory receptor family 8 subfamily K member 23): #1 96 inactive; #2 138 active; #3 85.7 inactive
Entr1 (endosome associated trafficking regulator 1): #1 79.7 inactive; #2 51 inactive; #3 92 inactive
Akr1c12 (aldo-keto reductase family 1, member C12): #1 83.1 inactive; #2 75.6 inactive; #3 58.2 inactive
Or51a8 (olfactory receptor family 51 subfamily A member 8): #1 18.3 inactive; #2 89.8 inactive; #3 79.9 inactive
Gpr108 (G protein-coupled receptor 108): #1 68.3 inactive; #2 45.6 inactive; #3 73.2 inactive
